No constants are given. Whether binding was seen depends on the method and setting. Some results given as binding are weak or reduced against the parent protein; the word gives no strength. Sequences can lack the tags named with a protein.
What was measured:
[1] = target: CIAS1-PYD (pyrin only CIAS1 construct) (UniProt Q96P20); experiment: Inferred from reduced speck formation in HeLa cells co-expressing CIAS1-PYD, GFP-POP2 and Myc-ASC
[2] = target: Myc-ASC (Apoptosis speck protein containing a CARD, Myc-tagged) (UniProt Q9ULZ3); experiment: Immunofluorescence co-localization in perinuclear specks, HeLa cells co-transfected with GFP-POP2 and Myc-ASC
[3] = target: Myc-ASC (Apoptosis speck protein containing a CARD, Myc-tagged) (UniProt Q9ULZ3); experiment: Immunofluorescence co-localization, HeLa cells transfected with GFP-POP2 and Myc-ASC
[4] = target: Myc-ASC (Apoptosis speck protein containing a CARD, Myc-tagged) (UniProt Q9ULZ3); experiment: Speck formation on coexpression, immunofluorescence

The chains behind the UniProt entries cited, without tags or fusion partners. Residues count along the entry.
UniProt Q96P20, residues 1-93: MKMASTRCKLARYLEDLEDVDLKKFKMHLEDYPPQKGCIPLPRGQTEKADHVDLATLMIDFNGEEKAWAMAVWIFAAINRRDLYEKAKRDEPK
UniProt Q9ULZ3: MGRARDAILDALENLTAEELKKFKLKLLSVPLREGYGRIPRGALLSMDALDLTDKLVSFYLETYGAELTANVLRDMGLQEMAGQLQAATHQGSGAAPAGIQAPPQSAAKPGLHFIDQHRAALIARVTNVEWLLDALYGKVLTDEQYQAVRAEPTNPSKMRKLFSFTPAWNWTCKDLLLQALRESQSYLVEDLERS

binding [1]: binds | binding [2]: binds | binding [3]: binds | binding [4]: binds
B1: GFP-POP2 (pyrin-only protein 2 fused to GFP) (protein, not shown: large carriers)
chain: MASSAELDFNLQALLEQLSQDELSKFKSLIRTISLGKELQTVPQTEVDKANGKQLVEIFTSHSCSYWAGMAAIQVFEKMNQTHLSGRADEHCVMPPP
